# These are yes or no findings as the source states them, for the method shown. In cells and extracts the contact can be indirect. Binding can be weak; no strength is given. Tags and fused reporters may be left off the sequences shown.
# Target: T1, Flag-tagged A. thaliana CenH3 (A. thaliana) (UniProt Q8RVQ9)
# T1 sequence: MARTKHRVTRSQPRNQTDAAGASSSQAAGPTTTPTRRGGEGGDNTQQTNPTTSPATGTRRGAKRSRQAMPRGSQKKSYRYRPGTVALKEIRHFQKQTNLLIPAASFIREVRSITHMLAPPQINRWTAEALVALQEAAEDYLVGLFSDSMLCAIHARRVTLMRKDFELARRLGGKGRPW
# Assay: co-IP; Flag-tagged bait from the detergent-solubilized membrane fraction of yeast held on a Flag-affinity column; eluted proteins read by western blot (anti-His or anti-Myc)
substance,measurement,value
His6-tagged TBSV p33 replication protein (tomato bushy stunt virus (TBSV)),binding,binds
